Laboratory results taken from PubChem BioAssay AID504834 (National Center for Advancing Translational Sciences (NCATS), 2011).
In all, about 320,000 compounds went through this assay and about 22,000 (6.9%) were called active. Inconclusive means that the source gave no clear call. Such entries were picked first, then a sample of the others. Calls come from the whole dose curve; as a rule, active = well fitted inhibition curve with a large enough effect; inconclusive = small, poorly fitted or top-dose-only effect, or another doubt; inactive = no such curve, though single readings can be large or run the other way. Potencies beside an inconclusive call are fits to weak or partial responses and may not hold up.

Experiment: Primary qHTS for delayed death inhibitors of the malarial parasite plastid, 96 hour incubation
Settings: P. falciparum luciferase reporter growth; series mostly up to 28.7 µM
Method in brief: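 Parasite growth measured via integrated firefly luciferase reporter in P. falciparum. Infected erythrocytes at 2% hematocrit, 0.05% parasitemia final were treated 96 hours at 37 C under 5% CO2, and luminescence was read.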
Potency is the fitted concentration of half-maximal effect.

| Structure (SMILES) | Potency |
| --- | --- |
| CCN1CCN(CC(=O)Nc2ccc(S(=O)(=O)N3C(C)CCCC3C)cc2)CC1 (configuration not stated) | inactive |
| CCSc1ccc([C@@H]2[C@H]3C(=O)N(CC)C(=O)[C@H]3[C@]3(C(=O)OC)CCCCN23)cc1 | active: 4.65 µM |
| COc1ccc2[nH]cc(C(=O)CNc3nc(C)cs3)c2c1 | inactive |
| COc1c(N2CCN(C(=S)NCc3ccccc3)C(C)C2)c(F)cc2c(=O)c(C(=O)O)cn(C3CC3)c12 (configuration not stated) | active: 2.94 µM |
| CN(Cc1nc2ccccc2n1C)C(=O)c1ccco1 | active: 1.65 µM |
| Cc1ccc(S(=O)(=O)c2cc3c(=O)n4ccccc4nc3n(C)c2=N)cc1C | inconclusive: 3.29 µM [inhibitor, partial curve] |
| O=C(CN1CCCC1c1cccs1)N1CCN(S(=O)(=O)c2ccccc2)CC1 (configuration not stated) | inconclusive: 18.5 µM [inhibitor, single point] |
| COc1ccccc1C(=O)NNC(=O)C(=O)Nc1ccc(C)c(Cl)c1 | inconclusive: 3.29 µM [inhibitor, partial curve] |
| CC(=O)c1ccc(NC(=O)c2cnsn2)cc1 | inconclusive: 14.7 µM [inhibitor, single point] |
| O=C(c1ccccc1)c1nn(-c2ccc(Cl)cc2)cc1C(=O)c1cc2ccccc2oc1=O | inconclusive: 3.29 µM [inhibitor, single point] |
| N=c1sccn1CC(=O)N1N=C(c2ccc(Cl)cc2)CC1c1ccco1 (configuration not stated) | inactive |
| Cn1c(SCC(=O)Nc2ccc(Br)cc2F)nnc1-c1ccco1 | inconclusive: 18.5 µM [inhibitor, single point] |
| CC(C)C(NC(=O)c1ccccc1)C(=O)OCC(=O)N1CCN(c2ccccc2)CC1 (configuration not stated) | inconclusive: 18.5 µM [inhibitor, single point] |
| COC1(NS(=O)(=O)c2ccc(Br)cc2)C(C)=CC(=O)C=C1C | inconclusive: 18.5 µM [inhibitor, single point] |
| CCCN1CCN(C(=O)c2ccc(Sc3ccc(C)cc3)c(NC(C)=O)c2)CC1 | inconclusive: 10.4 µM [inhibitor, single point] |
| COc1ccc(C(=O)C2CCCN(C(=O)c3noc4c3CCCC4)C2)cc1F (configuration not stated) | inconclusive: 18.5 µM [inhibitor, single point] |
| O=C(CCl)c1ccc2[nH]c(=O)oc2c1 | inconclusive: 6.57 µM [inhibitor, partial curve] |
| CCCCNC(=O)O/N=C(\N)CS(=O)(=O)C(C)(C)C | inactive |
| Cc1cc(C=C2C(=O)c3ccccc3C2=O)c(C)n1-c1cccc(C(=O)O)c1 | inactive |
| COc1ccc(/C=C/C(=O)NCc2cn(C)nc2C)cc1COc1ccc(Cl)cc1Br | inconclusive: 1.65 µM [inhibitor, partial curve] |
| CCn1cc(CN2CCCC(C(=O)c3ccc(-c4ccccc4)c(F)c3)C2)cn1 (configuration not stated) | inconclusive: 16.5 µM [inhibitor, single point] |
| COc1ccc(N2CCN(C(=O)c3cccc(S(=O)(=O)N4CCCc5ccccc54)c3)CC2)cc1 | inconclusive: 5.22 µM [inhibitor, partial curve, poor fit] |
| O=C(Nc1ccccc1)N1CCCC1c1cccs1 (configuration not stated) | inconclusive: 1.04 µM [inhibitor, single point] |

Given with each value named: 4 of the compounds above
CCN1CCN(CC(=O)Nc2ccc(S(=O)(=O)N3C(C)CCCC3C)cc2)CC1 (configuration not stated)
  Potency: inactive
COc1ccc(/C=C/C(=O)NCc2cn(C)nc2C)cc1COc1ccc(Cl)cc1Br
  Potency: inconclusive: 1.65 µM [inhibitor, partial curve]
CCn1cc(CN2CCCC(C(=O)c3ccc(-c4ccccc4)c(F)c3)C2)cn1 (configuration not stated)
  Potency: inconclusive: 16.5 µM [inhibitor, single point]
COc1ccc(N2CCN(C(=O)c3cccc(S(=O)(=O)N4CCCc5ccccc54)c3)CC2)cc1
  Potency: inconclusive: 5.22 µM [inhibitor, partial curve, poor fit]

The listing continues.

| Structure (SMILES) | Potency |
| --- | --- |
| CSC1=N/C(=C\C=C\c2cccs2)C(=O)S1 | active: 5.22 µM |
| COc1ccccc1CN1CCCC(N2CCN(c3ccccc3OC)CC2)C1 (configuration not stated) | active: 4.65 µM |
| COc1ccc(COC(=O)N/N=C(\C)CC(=O)Nc2c(C)cc(C)cc2C)cc1 | inconclusive: 18.5 µM [inhibitor, single point] |
| O=C(CCn1nc(-c2ccccc2)ccc1=O)N1CCOCC1 | active: 1.31 µM |
| COc1ccc(O)c(/C=N/N2CCOCC2)c1 | inactive |
| OC1CCN(c2c3c(nc4cc(-c5ccc(F)cc5)nn24)CCC3)CC1 | inconclusive: 8.28 µM [inhibitor, partial curve, poor fit] |
| CCc1ccc(S(=O)(=O)NCCc2csc(-c3ccccc3)n2)s1 | inconclusive: 3.29 µM [inhibitor, partial curve, poor fit] |
| CCOC(=O)c1nn(-c2ccc(C)c(C)c2)c(=O)c(C#N)c1C | inactive |
| N=c1oc2ccccc2cc1C(=O)NCc1ccccc1 | inconclusive: 0.738 µM [inhibitor, partial curve, poor fit] |
| COc1ccc(OC)c(C(=O)Cn2nnc(-c3ccc(N4CCOCC4)cc3)n2)c1 | inconclusive: 13.1 µM [inhibitor, partial curve, poor fit] |
| OCC1(Cc2cccc(Cl)c2)CCCN(Cc2sc(N3CCCC3)nc2Cl)C1 (configuration not stated) | inconclusive: 18.5 µM [inhibitor, single point] |
| CC(=O)Nc1nccc(-c2cc(-c3ccccc3)no2)n1 | inactive |
| CCCN1CCC(=O)N([C@H](COc2ccccc2)Cc2ccccc2)CC1 | inconclusive: 8.28 µM [inhibitor, partial curve, poor fit] |
| COC(=O)C1=C(c2ccc(-c3ccccc3)c(F)c2)C[C@@H]2CC[C@H]1N2C(=O)N1CCC(O)CC1 | inconclusive: 6.57 µM [inhibitor, partial curve, poor fit] |
| CCOC(=O)c1[nH]c(C)c(CN(CCc2ccccc2)C(=O)CCC(=O)O)c1C | active: 4.15 µM |
| COc1cccc(NC(=O)c2cc(-c3cccnc3)nc3c(Cl)cccc23)c1 | active: 1.85 µM |
| Cc1cc(NC(=O)c2cccc(S(=O)(=O)Nc3cccc(C(=O)O)c3)c2)no1 | inconclusive: 1.04 µM [inhibitor, partial curve, poor fit] |
| CCN1CCc2c(C#N)c(NCc3ccccc3)nc(NCCO)c2C1 | inconclusive: 18.5 µM [inhibitor, single point] |
| COc1cc(Nc2nc(SCC#N)nc3ccccc23)cc(OC)c1OC | inconclusive: 10.4 µM [inhibitor, partial curve] |
| COc1ccc(C(=O)Nc2ccccc2C(=O)O)cc1NC(=O)C(c1ccccc1)c1ccccc1 | inconclusive: 0.828 µM [inhibitor, full curve, poor fit] |
| O=C(Cc1ccc(Cl)cc1)NCCS(=O)(=O)N1CCN(c2ccccc2)CC1 | inconclusive: 18.5 µM [inhibitor, single point] |
| CN(Cc1ccccc1)C(=O)C1CCC(CNS(=O)(=O)c2cccc3cccnc23)CC1 (configuration not stated) | inconclusive: 8.28 µM [inhibitor, partial curve, poor fit] |
| O=C(CSc1ccccc1)Nc1cccc(S(=O)(=O)N2CCOCC2)c1 | inconclusive: 7.38 µM [inhibitor, partial curve, poor fit] |

| Structure (SMILES) | Potency |
| --- | --- |
| CCOc1ccccc1NC(=O)NCCN1CCCCC1 | inconclusive: 18.5 µM [inhibitor, single point] |
| COc1ccc(CN2CCN(Cc3c[nH]c4ccccc34)CC2CCO)c(F)c1 (configuration not stated) | inconclusive: 11.7 µM [inhibitor, single point] |
| O=S(=O)(NCC1CC1)c1cc(Cl)cc(Cl)c1 | inactive |
| COc1ccc(NC(=O)CS(=O)(=O)c2cn(CC(=O)N3CCOCC3)c3ccccc23)cc1OC | active: 7.38 µM |
| O=C1/C(=C/c2cccnc2)Oc2cc(OS(=O)(=O)c3ccc(F)cc3)ccc21 | inconclusive: 10.4 µM [inhibitor, single point] |
| Cn1c(=O)oc2cc(S(=O)(=O)CCC(=O)Nc3ccccc3)ccc21 | inconclusive: 18.5 µM [inhibitor, single point] |
| N=c1c(C(=O)NC2CCCC2)cc2c(=O)n3ccccc3nc2n1C1CCCC1 | inconclusive: 4.15 µM [inhibitor, partial curve, poor fit] |
| CC1(C)CC(=O)c2c(O)c(-c3ccccc3)c(=O)n(-c3ccccc3)c2C1 | inconclusive: 11.7 µM [inhibitor, partial curve] |
| Cc1ccc(CNC(=O)[C@H](C)NC(=O)C2CCN(C(=O)[C@@H](N)CC(C)C)CC2)cc1 | inactive |
| O=C1C(Cl)=C(N2CCN(c3ccccc3[N+](=O)[O-])CC2)C(=O)c2ccccc21 | active: 8.28 µM |
| O=C(Nc1ccncc1)c1ccccc1Cl | inconclusive: 10.4 µM [inhibitor, single point] |
| Cc1cccc(NC(=O)CN(C)S(=O)(=O)c2ccc(Br)cc2)n1 | inconclusive: 0.0033 µM [inhibitor, full curve, poor fit] |
| COc1ccc2oc(=O)c(C(=O)N3CCN(c4ccccc4F)CC3)cc2c1 | inconclusive: 2.94 µM [inhibitor, single point] |
| COc1ccc(NC(=O)c2ccc(S(=O)(=O)N(C)C)cc2)cc1 | inconclusive: 0.104 µM [inhibitor, full curve, poor fit] |
| CC(=O)N1CCN(C(=O)COC(=O)COc2c(C)cc(C)cc2C)CC1 | inactive |
| Cc1cc(NC(=O)CSc2nc(-c3ccc(Cl)cc3)cs2)no1 | inconclusive: 0.928 µM [inhibitor, partial curve, poor fit] |
| Cc1sc2ncnc(N3CCC(C(=O)Nc4nc(-c5cccs5)cs4)CC3)c2c1C | active: 10.4 µM |
| Cc1ccccc1NC(=O)c1cccc(N2C(=O)C3CCC(C)CC3C2=O)c1 (configuration not stated) | inconclusive: 18.5 µM [inhibitor, single point] |
| CSc1ccc(CN2CCC(CO)(CCOc3ccccc3)CC2)cc1 | inactive |
| CN(C)c1ccc(C2CNC(c3ccc(Cl)c([N+](=O)[O-])c3)c3[nH]c4ccccc4c32)cc1 (configuration not stated) | inconclusive: 10.4 µM [inhibitor, single point] |
| Cc1ccc(C)c(S(=O)(=O)N2CCN(C(=O)Cn3c(=O)cnc4ccccc43)CC2)c1 | inactive |
